Entries after “also recorded” stand apart in the source; their conditions may differ.
Experiment: Test reaction of active substance with t-butyl hydroperoxide under reflux
Format: physicochemical
Conditions: chloroform, reflux 6 hours
Description: To determine the sensitivity of the active substance to oxidation reactions with hydroperoxides, an easily implemented test reaction has been developed. For this purpose, the active substance in chloroform or another appropriate solvent is reacted with t-butyl hydroperoxide under reflux. If oxidative degradation products of the active substance are found in this reaction mixture, they can be attributed to the reaction with hydroperoxide. Often, degradation of the active substance is also evident very simply from a discoloration of the test solution. The practical conclusion to be drawn from a positive outcome of the test reaction is that when formulating a transdermal system using this active substance the auxiliaries used should include only those which are substantially free from hydroperoxides.
80 ml of chloroform and 1 g of t-butyl hydroperoxide are added to 0.5 g of the active substance and this system is heated under reflux with stirring for 6 hours. The reaction mixture is subsequently assessed for its color and analyzed using an appropriate chromatographic method for degradation products formed.

## COC(=O)C1=C(C)NC(C)=C(C(=O)OC)C1c1ccccc1[N+](=O)[O-] [nifedipine]
  Identified degradation product in reaction with t-butyl hydroperoxide: Aromatization of the dihydropyridine ring; also recorded: N-oxide formation
